Results from article PMC5711941.
No constants are given. Whether binding was seen depends on the method and setting.

Protein sequences, listed by entry. Tags and fused reporters are not part of them. Lines headed by an entry give the natural chain unless they say otherwise; changes in a name come on top. Chains listed by the source or under a name are the forms on record and can include a tag or linker. Residues count along the entry.
cortactinCR (cortactin repeat domain, residues Gly83-Phe324 of mouse cortactin) (Q60598, form named): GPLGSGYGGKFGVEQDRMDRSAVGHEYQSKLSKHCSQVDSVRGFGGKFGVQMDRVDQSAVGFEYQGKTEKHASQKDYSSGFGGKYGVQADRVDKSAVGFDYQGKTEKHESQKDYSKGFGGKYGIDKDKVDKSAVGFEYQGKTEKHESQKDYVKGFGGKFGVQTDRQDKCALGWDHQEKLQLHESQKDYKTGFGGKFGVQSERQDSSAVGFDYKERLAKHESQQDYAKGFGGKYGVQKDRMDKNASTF
cortactinCRH (cortactin repeat and helical domains, residues Gly83-Thr401 of mouse cortactin) (Q60598, form named): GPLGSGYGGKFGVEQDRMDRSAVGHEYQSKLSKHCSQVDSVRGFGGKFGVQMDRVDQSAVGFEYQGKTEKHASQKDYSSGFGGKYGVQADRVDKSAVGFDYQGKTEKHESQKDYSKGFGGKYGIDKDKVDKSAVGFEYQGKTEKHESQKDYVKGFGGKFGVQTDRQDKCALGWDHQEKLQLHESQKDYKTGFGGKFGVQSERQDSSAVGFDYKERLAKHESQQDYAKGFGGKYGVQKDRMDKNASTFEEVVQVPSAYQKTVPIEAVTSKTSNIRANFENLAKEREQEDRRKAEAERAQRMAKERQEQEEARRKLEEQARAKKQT

Key:
[1] = target: cortactinCR (cortactin repeat domain, residues Gly83-Phe324 of mouse cortactin) (mouse) (UniProt Q60598); experiment: SEC-MALS; WTC-300 silica-based column (Wyatt), 1x PBS with 0.02% sodium azide; 100 µL injected at 0.6 mg/ml (cortactinCRH) or 1.5 mg/mL (cortactinCR); flow 0.4 mL/min; both purified
[2] = target: cortactinCRH (cortactin repeat and helical domains, residues Gly83-Thr401 of mouse cortactin) (mouse) (UniProt Q60598); experiment: SAXS; cortactinCRH at 0.4 mg/ml and 1.1 mg/mL in 20 mM Tris pH 8, 300 mM NaCl, 1 mM TCEP; 295 K; molecular weight from Porod volume; both purified
[3] = target: cortactinCRH (cortactin repeat and helical domains, residues Gly83-Thr401 of mouse cortactin) (mouse) (UniProt Q60598); experiment: SEC-MALS; WTC-300 silica-based column (Wyatt), 1x PBS with 0.02% sodium azide; 100 µL injected at 0.6 mg/ml (cortactinCRH) or 1.5 mg/mL (cortactinCR); flow 0.4 mL/min; both purified

cortactinCR (cortactin repeat domain, residues Gly83-Phe324 of mouse cortactin) (from UniProt Q60598 83-324) (domain or fragment)
binding [1]: no binding (tested: 1.5 mg/mL)

cortactinCRH (cortactin repeat and helical domains, residues Gly83-Thr401 of mouse cortactin) (from UniProt Q60598 83-401) (domain or fragment)
binding [2]: no binding (tested: 1.1 mg/mL) | binding [3]: no binding (tested: 0.6 mg/ml)
